# Laboratory results reported in the supplement of paper PMC8728848.
# The other results are listed elsewhere or left out.
# B1: GroEL (Clostridium difficile), Q18CT5 (protein)
# chain: MAKEIKFSEETRRALEAGVNKLADTVKVTLGPKGRNVILDKKFGSPLITNDGVTIAKEIELEDRFENMGAQLVKEVATKTNDVAGDGTTTATVLAQAIIREGLKNVTAGANPILLRKGIQKAVTVAVEELKNQSRIVETQEAISQVASISAGDEEVGKLIAEAMEIVGKDGVITVEESQTMNTELDAVEGMQFDRGFVSAYMVTDVDKMEAVLNDPYILITDKKISNIQELLPVLEQIVQQGKKLLIIAEDVEGEALSTLVVNKLRGTFDVVAVKAPGFGDRRKEMLQDIAILTGAQVISEELGYDLKEADLSMLGRASSVKVTKESTTIVDGSGDKKAIEDRVTQIKHQVEQTTSDFDREKLMERLAKLAGGVAVVKVGAATEVELKERKLRIEDALNATRAAVEEGIVAGGGTAFVSVIPAIGTLIESLEGEVKLGAQIVKKALEEPLRQIAINAGLEGAVIVQNVVNSEAETGFDALNEKYVNMIEAGIVDPTKVSRSALQNAASIASTFLTTEAAVADLPEKEDAGMPGMGGGMPGMM
# What was measured:
# Assay in all cases: glycan array binding signal (z-score within array); higher = stronger binding
# Conditions in all cases: glycan notation: IUPAC condensed, linker removed
# [1] = biological target: Gal(a1-3)Gal(b1-4)GlcNAc(b1-2)Man(a1-3)[Gal(a1-3)Gal(b1-4)GlcNAc(b1-2)Man(a1-6)]Man(b1-4)GlcNAc(b1-4)GlcNAc
# Outline: (§1)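 Glycan array data came from 3228 arrays in the Consortium for Functional Glycomics database, and only arrays with an available protein sequence were kept. Glycan names were put into IUPAC-condensed notation, and columns mapping to the same glycan were averaged. The binding signal is a within-array Z-score, averaged across arrays of one protein sequence run at different concentrations or buffers and across linkers. A negative Z-score can be read as non-binding.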
# [2] = biological target: Gal(a1-3)Gal(b1-4)GlcNAc(b1-3)GalNAc
# Outline: as §1
# [3] = biological target: Gal(a1-3)Gal(b1-4)GlcNAc(b1-6)GalNAc
# Outline: as §1
# [4] = biological target: Gal(a1-3)Gal(b1-4)[Fuc(a1-3)]GlcNAc
# Outline: as §1
# [5] = biological target: Gal(a1-3)Gal(b1-4)[Fuc(a1-3)]GlcNAc(b1-2)Man(a1-3)[Gal(a1-3)Gal(b1-4)[Fuc(a1-3)]GlcNAc(b1-2)Man(a1-6)]Man(b1-4)GlcNAc(b1-4)GlcNAc
# Outline: as §1
# [6] = biological target: Gal(a1-3)GalNAc
# Outline: as §1
# [7] = biological target: Gal(a1-3)[Gal(a1-4)]Gal(b1-4)GlcNAc
# Outline: as §1
# [8] = biological target: Gal(a1-4)Gal(b1-3)GlcNAc(b1-2)Man(a1-3)[Gal(a1-4)Gal(b1-3)GlcNAc(b1-2)Man(a1-6)]Man(b1-4)GlcNAc(b1-4)GlcNAc
# Outline: as §1
# [9] = biological target: Gal(a1-4)Gal(b1-4)Glc
# Outline: as §1
# [10] = biological target: Gal(a1-4)Gal(b1-4)GlcNAc
# Outline: as §1
# [11] = biological target: Gal(a1-4)Gal(b1-4)GlcNAc(b1-2)Man(a1-3)[Gal(a1-4)Gal(b1-4)GlcNAc(b1-2)Man(a1-6)]Man(b1-4)GlcNAc(b1-4)GlcNAc
# Outline: as §1
# [12] = biological target: Gal(a1-4)Gal(b1-4)GlcNAc(b1-3)Gal(b1-4)Glc
# Outline: as §1
# [13] = biological target: Gal(a1-4)GlcNAc
# Outline: as §1
# [14] = biological target: Gal(a1-6)Glc
# Outline: as §1
# [15] = biological target: Gal(b1-2)Gal
# Outline: as §1
# [16] = biological target: Gal(b1-3)Gal
# Outline: as §1
# [17] = biological target: Gal(b1-3)Gal(b1-4)GlcNAc
# Outline: as §1
# [18] = biological target: Gal(b1-3)GalNAc
# Outline: as §1
# [19] = biological target: Gal(b1-3)GalNAc(a1-3)[Fuc(a1-2)]Gal(b1-4)Glc
# Outline: as §1
# [20] = biological target: Gal(b1-3)GalNAc(a1-3)[Fuc(a1-2)]Gal(b1-4)GlcNAc
# Outline: as §1
# [21] = biological target: Gal(b1-3)GalNAc(b1-3)Gal
# Outline: as §1
# [22] = biological target: Gal(b1-3)GalNAc(b1-3)Gal(a1-4)Gal(b1-4)Glc
# Outline: as §1
# [23] = biological target: Gal(b1-3)GalNAc(b1-4)Gal(b1-4)Glc
# Outline: as §1
# [24] = biological target: Gal(b1-3)GalNAc(b1-4)[Neu5Ac(a2-3)]Gal(b1-4)Glc
# Outline: as §1
# [25] = biological target: Gal(b1-3)GlcNAc
# Outline: as §1
# [26] = biological target: Gal(b1-3)GlcNAc(a1-3)Gal(b1-4)GlcNAc
# Outline: as §1
# [27] = biological target: Gal(b1-3)GlcNAc(a1-6)Gal(b1-4)GlcNAc
# Outline: as §1
# [28] = biological target: Gal(b1-3)GlcNAc(b1-2)Man
# Outline: as §1
# [29] = biological target: Gal(b1-3)GlcNAc(b1-2)Man(a1-3)[Gal(b1-3)GlcNAc(b1-2)Man(a1-6)]Man(b1-4)GlcNAc(b1-4)GlcNAc
# Outline: as §1
# [30] = biological target: Gal(b1-3)GlcNAc(b1-2)Man(a1-3)[Gal(b1-3)GlcNAc(b1-2)Man(a1-6)]Man(b1-4)GlcNAc(b1-4)[Fuc(a1-6)]GlcNAc
# Outline: as §1
# [31] = biological target: Gal(b1-3)GlcNAc(b1-2)Man(a1-3)[GlcNAc(b1-4)][Gal(b1-3)GlcNAc(b1-2)Man(a1-6)]Man(b1-4)GlcNAc(b1-4)GlcNAc
# Outline: as §1
# [32] = biological target: Gal(b1-3)GlcNAc(b1-2)[Gal(b1-3)GlcNAc(b1-6)]Man(a1-6)[Gal(b1-3)GlcNAc(b1-2)Man(a1-3)]Man(b1-4)GlcNAc(b1-4)GlcNAc
# Outline: as §1
# [33] = biological target: Gal(b1-3)GlcNAc(b1-3)Gal(b1-3)GlcNAc
# Outline: as §1
# [34] = biological target: Gal(b1-3)GlcNAc(b1-3)Gal(b1-4)Glc
# Outline: as §1
# [35] = biological target: Gal(b1-3)GlcNAc(b1-3)Gal(b1-4)GlcNAc
# Outline: as §1
# [36] = biological target: Gal(b1-3)GlcNAc(b1-3)Gal(b1-4)GlcNAc(b1-2)Man(a1-3)[Gal(b1-3)GlcNAc(b1-3)Gal(b1-4)GlcNAc(b1-2)Man(a1-6)]Man(b1-4)GlcNAc(b1-4)GlcNAc
# Outline: as §1
# [37] = biological target: Gal(b1-3)GlcNAc(b1-3)Gal(b1-4)GlcNAc(b1-2)[Gal(b1-3)GlcNAc(b1-3)Gal(b1-4)GlcNAc(b1-6)]Man(a1-6)[Gal(b1-3)GlcNAc(b1-3)Gal(b1-4)GlcNAc(b1-2)Man(a1-3)]Man(b1-4)GlcNAc(b1-4)[Fuc(a1-6)]GlcNAc
# Outline: as §1
# [38] = biological target: Gal(b1-3)GlcNAc(b1-3)Gal(b1-4)GlcNAc(b1-3)Gal(b1-4)GlcNAc(b1-2)[Gal(b1-3)GlcNAc(b1-3)Gal(b1-4)GlcNAc(b1-3)Gal(b1-4)GlcNAc(b1-6)]Man(a1-6)[Gal(b1-3)GlcNAc(b1-3)Gal(b1-4)GlcNAc(b1-3)Gal(b1-4)GlcNAc(b1-2)Man(a1-3)]Man(b1-4)GlcNAc(b1-4)[Fuc(a1-6)]GlcNAc
# Outline: as §1
# [39] = biological target: Gal(b1-3)GlcNAc(b1-3)Gal(b1-4)GlcNAc(b1-6)[Gal(b1-3)GlcNAc(b1-3)]Gal(b1-4)Glc
# Outline: as §1
# [40] = biological target: Gal(b1-3)GlcNAc(b1-3)Gal(b1-4)[Fuc(a1-3)]GlcNAc
# Outline: as §1
# [41] = biological target: Gal(b1-3)GlcNAc(b1-3)Gal(b1-4)[Fuc(a1-3)]GlcNAc(b1-6)[Gal(b1-3)GlcNAc(b1-3)]Gal(b1-4)Glc
# Outline: as §1
# [42] = biological target: Gal(b1-3)GlcNAc(b1-3)GalNAc
# Outline: as §1
# [43] = biological target: Gal(b1-3)GlcNAc(b1-6)Gal(b1-4)GlcNAc
# Outline: as §1
# [44] = biological target: Gal(b1-3)GlcNAc(b1-6)GalNAc
# Outline: as §1
# [45] = biological target: Gal(b1-3)GlcNAc(b1-6)[Gal(b1-3)]GalNAc
# Outline: as §1
# [46] = biological target: Gal(b1-3)GlcNAc6S
# Outline: as §1
# [47] = biological target: Gal(b1-3)[Fuc(a1-4)]GlcNAc
# Outline: as §1
# [48] = biological target: Gal(b1-3)[Fuc(a1-4)]GlcNAc(b1-2)Man
# Outline: as §1
# [49] = biological target: Gal(b1-3)[Fuc(a1-4)]GlcNAc(b1-2)Man(a1-3)[Gal(b1-3)[Fuc(a1-4)]GlcNAc(b1-2)Man(a1-6)]Man(b1-4)GlcNAc(b1-4)[Fuc(a1-6)]GlcNAc
# Outline: as §1
# [50] = biological target: Gal(b1-3)[Fuc(a1-4)]GlcNAc(b1-3)Gal(b1-3)[Fuc(a1-4)]GlcNAc
# Outline: as §1
# [51] = biological target: Gal(b1-3)[Fuc(a1-4)]GlcNAc(b1-3)Gal(b1-4)[Fuc(a1-3)]GlcNAc
# Outline: as §1
# [52] = biological target: Gal(b1-3)[Fuc(a1-4)]GlcNAc(b1-6)GalNAc
# Outline: as §1
# [53] = biological target: Gal(b1-3)[GlcNAc(b1-6)]GalNAc
# Outline: as §1
# [54] = biological target: Gal(b1-3)[Neu5Ac(a2-6)]GalNAc
# Outline: as §1
# [55] = biological target: Gal(b1-3)[Neu5Ac(a2-6)]GlcNAc(b1-4)Gal(b1-4)Glc
# Outline: as §1
# [56] = biological target: Gal(b1-3)[Neu5Ac(b2-6)]GalNAc
# Outline: as §1
# [57] = biological target: Gal(b1-4)Gal
# Outline: as §1
# [58] = biological target: Gal(b1-4)GalNAc(a1-3)[Fuc(a1-2)]Gal(b1-4)GlcNAc
# Outline: as §1
# [59] = biological target: Gal(b1-4)GalNAc(b1-3)[Fuc(a1-2)]Gal(b1-4)GlcNAc
# Outline: as §1
# [60] = biological target: Gal(b1-4)Glc
# Outline: as §1
binder,measurement,setting,value
B1,glycan array binding signal (z-score),[1],1.12
same,glycan array binding signal (z-score),[2],-1.93
same,glycan array binding signal (z-score),[3],-1.27
same,glycan array binding signal (z-score),[4],0.339
same,glycan array binding signal (z-score),[5],-0.924
same,glycan array binding signal (z-score),[6],0.054
same,glycan array binding signal (z-score),[7],-0.299
same,glycan array binding signal (z-score),[8],-1.24
same,glycan array binding signal (z-score),[9],2.58
same,glycan array binding signal (z-score),[10],-0.452
same,glycan array binding signal (z-score),[11],0.083
same,glycan array binding signal (z-score),[12],-0.087
same,glycan array binding signal (z-score),[13],-0.307
same,glycan array binding signal (z-score),[14],-1.32
same,glycan array binding signal (z-score),[15],-0.964
same,glycan array binding signal (z-score),[16],1.32
same,glycan array binding signal (z-score),[17],-0.843
same,glycan array binding signal (z-score),[18],-0.683
same,glycan array binding signal (z-score),[19],3.31
same,glycan array binding signal (z-score),[20],-0.773
same,glycan array binding signal (z-score),[21],0.853
same,glycan array binding signal (z-score),[22],0.316
same,glycan array binding signal (z-score),[23],1.01
same,glycan array binding signal (z-score),[24],-0.485
same,glycan array binding signal (z-score),[25],-0.195
same,glycan array binding signal (z-score),[26],-0.935
same,glycan array binding signal (z-score),[27],-1.43
same,glycan array binding signal (z-score),[28],-0.397
same,glycan array binding signal (z-score),[29],-0.447
same,glycan array binding signal (z-score),[30],-0.13
same,glycan array binding signal (z-score),[31],1.57
same,glycan array binding signal (z-score),[32],-1.3
same,glycan array binding signal (z-score),[33],-0.943
same,glycan array binding signal (z-score),[34],-0.417
same,glycan array binding signal (z-score),[35],-0.178
same,glycan array binding signal (z-score),[36],0.567
same,glycan array binding signal (z-score),[37],2.26
same,glycan array binding signal (z-score),[38],0.368
same,glycan array binding signal (z-score),[39],-0.643
same,glycan array binding signal (z-score),[40],1.03
same,glycan array binding signal (z-score),[41],-0.967
same,glycan array binding signal (z-score),[42],-0.375
same,glycan array binding signal (z-score),[43],-0.508
same,glycan array binding signal (z-score),[44],0.343
same,glycan array binding signal (z-score),[45],-0.809
same,glycan array binding signal (z-score),[46],0.344
same,glycan array binding signal (z-score),[47],-0.919
same,glycan array binding signal (z-score),[48],0.952
same,glycan array binding signal (z-score),[49],2.34
same,glycan array binding signal (z-score),[50],0.963
same,glycan array binding signal (z-score),[51],0.108
same,glycan array binding signal (z-score),[52],1.37
same,glycan array binding signal (z-score),[53],0.134
same,glycan array binding signal (z-score),[54],-0.592
same,glycan array binding signal (z-score),[55],-0.031
same,glycan array binding signal (z-score),[56],1.46
same,glycan array binding signal (z-score),[57],0.494
same,glycan array binding signal (z-score),[58],-0.039
same,glycan array binding signal (z-score),[59],0.291
same,glycan array binding signal (z-score),[60],0.51
